Laboratory results: publication PMC3065274
Results are given in words; binding and its absence hold for the method and conditions named. Binding seen in cells or lysates may run through a third protein. Some entries that bind do so weakly or less than the wild type.

Chains of the proteins cited; added tags and fusions are not shown.
UniProt P35222: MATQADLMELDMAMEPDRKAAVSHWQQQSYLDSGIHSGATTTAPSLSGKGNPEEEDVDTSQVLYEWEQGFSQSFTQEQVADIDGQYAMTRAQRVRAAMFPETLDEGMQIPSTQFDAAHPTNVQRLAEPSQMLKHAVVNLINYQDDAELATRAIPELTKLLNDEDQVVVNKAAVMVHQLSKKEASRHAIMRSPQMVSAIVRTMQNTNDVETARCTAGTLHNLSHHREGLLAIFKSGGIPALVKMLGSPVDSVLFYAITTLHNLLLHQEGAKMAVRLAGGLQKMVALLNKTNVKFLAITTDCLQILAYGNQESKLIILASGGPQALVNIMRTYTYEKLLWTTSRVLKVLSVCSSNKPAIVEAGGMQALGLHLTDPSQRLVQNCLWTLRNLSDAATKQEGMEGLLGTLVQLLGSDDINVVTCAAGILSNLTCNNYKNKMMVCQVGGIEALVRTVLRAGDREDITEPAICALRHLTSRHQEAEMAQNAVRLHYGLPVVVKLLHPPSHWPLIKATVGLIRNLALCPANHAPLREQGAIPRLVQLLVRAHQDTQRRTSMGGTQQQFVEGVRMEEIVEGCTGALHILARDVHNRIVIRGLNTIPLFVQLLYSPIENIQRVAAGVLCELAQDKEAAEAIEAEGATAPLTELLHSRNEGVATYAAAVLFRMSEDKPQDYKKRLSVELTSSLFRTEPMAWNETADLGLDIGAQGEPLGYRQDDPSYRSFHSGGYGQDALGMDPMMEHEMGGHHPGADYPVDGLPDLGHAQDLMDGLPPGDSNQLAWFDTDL

Molecular target: β-catenin (human (endogenous in NIH:OVCAR3)) (UniProt P35222)
Assay: co-IP; lysate from adherent NIH:OVCAR3 cells, endogenous proteins; immunoprecipitated with anti-CA125/MUC16 (M11), anti-E-cadherin or anti-β-catenin antibody, control IgG alongside; in the presence or absence of EGF; immunoblot

binding: binds
Substance: CA125/MUC16 mucin (from UniProt Q8WXI7 1-14507)
